The list shows only some results of the screen, not a fair sample: it gathers tests that were run many times, whatever their T/C, doses with no T/C, and many T/C values between a quarter and a half above the control. Further doses and runs are listed elsewhere. T/C is the treated group as % of the vehicle group. Some entries give survivors of the animals treated and no T/C: the source holds a T/C of zero for them, seemingly a mark for toxic or unscored doses. Some survivor counts are full or nearly so, which does not show that the dose was tolerated: the source hardly ever lists a survival T/C far under the control, and the zero likely stands for such cases as well. Counts of survivors are from the toxicity check (mostly the fifth day) where no day follows; animals may have died later. Schedule codes are those of the source, taken here to give the interval after Q, in days (D) or hours (H), and the number of doses after X. Where survival is the endpoint, the PubChem record calls one and a half times the control and up active, and a quarter to a half above the control has no call in these data; cut-offs in other NCI protocols can differ. Signs of the kind (2×) say how often a value occurs here. Some T/C values are followed by the survivors on the day toxicity was checked, most often the fifth; where none is given, no animal had died by that day. Some entries hold several experiments; the values are given in rising order. Some schedules carry Z or #; the key to these is not given.
Tested on: CD2F1 mice, L1210 leukemia ip, survival T/C
Assay: NCI In Vivo Anticancer Drug Screen. Data for tumor model L1210 Leukemia (intraperitoneal) in CD2F1 (CDF1) mice
Settings: T/C endpoint: mean survival time, higher T/C = longer survival
Method in brief: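 Ratio T/C, where T is the treated-group value and C the vehicle-dosed control value, from mice implanted with a transplantable tumor.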

[1] = dose: 100.0 mg/kg/injection, schedule: Q01DX009 (ip), vehicle: water

## O=P1(N(CCCl)CCCl)NCCCO1 (stereo not given)
dose: 100.0 mg/kg/injection, schedule: Q01DX001 (ip), vehicle: other, evaluated on day 30
  T/C: 141 % of control
dose: 100.0 mg/kg/injection, schedule: Q01DX001 (ip), vehicle: other, evaluated on day 50
  T/C: 139 % of control
dose: 100.0 mg/kg/injection, schedule: Q01DX001 (ip), vehicle: saline, evaluated on day 5
  T/C: 138, 141, 147, 157 (2×), 161, 169 % of control
dose: 100.0 mg/kg/injection, schedule: Q01DX001 (ip), vehicle: saline, evaluated on day 7
  T/C: 153 % of control
dose: 100.0 mg/kg/injection, schedule: Q01DX001 (ip), vehicle: saline, evaluated on day 30
  T/C: 117, 127 [5 of 6 alive], 129, 134 (2×), 144, 155 % of control
dose: 100.0 mg/kg/injection, schedule: Q01DX001 (ip), vehicle: saline, evaluated on day 35
  T/C: 134 and 157 % of control
dose: 100.0 mg/kg/injection, schedule: Q01DX001 (ip), vehicle: saline, evaluated on day 40
  T/C: 145 and 153 % of control
dose: 100.0 mg/kg/injection, schedule: Q01DX001 (ip), vehicle: saline, evaluated on day 60
  T/C: 138, 139, 147, 150, 161 % of control
dose: 100.0 mg/kg/injection, schedule: Q01DX001 (ip), vehicle: saline, evaluated on day 90
  T/C: 95, 132, 134, 136, 142, 143, 145 % of control
dose: 100.0 mg/kg/injection, schedule: Q01DX001 (ip), vehicle: water, evaluated on day 5
  T/C: 159 % of control
dose: 100.0 mg/kg/injection, schedule: Q01DX001 (ip), vehicle: water, evaluated on day 30
  T/C: 121, 133, 134, 145, 150, 151, 152, 155, 156, 160, 165, 168 % of control
dose: 100.0 mg/kg/injection, schedule: Q01DX001 (ip), vehicle: water, evaluated on day 35
  T/C: 184 % of control
dose: 100.0 mg/kg/injection, schedule: Q01DX001 (ip), vehicle: water, evaluated on day 45
  T/C: 159 % of control
dose: 100.0 mg/kg/injection, schedule: Q01DX005 (ip), vehicle: water
  T/C: 171 [5 of 6 alive], 198, 211, 249 % of control
[1]
  T/C: 92, 118, 125, 132, 141, 142, 152, 172, 182, 186, 188, 189, 192, 194, 214 % of control
  survivor count: 6 of 6
dose: 100.0 mg/kg/injection, schedule: Q## X001 (ip), vehicle: saline
  T/C: 148 % of control
dose: 125.0 mg/kg/injection, schedule: Q01DX001 (ip), vehicle: DMSO, evaluated on day 20
  T/C: 134 % of control
dose: 125.0 mg/kg/injection, schedule: Q01DX001 (ip), vehicle: DMSO, evaluated on day 25
  T/C: 148 and 151 % of control
dose: 125.0 mg/kg/injection, schedule: Q01DX001 (ip), vehicle: DMSO, evaluated on day 40
  T/C: 170 % of control
dose: 125.0 mg/kg/injection, schedule: Q01DX001 (ip), vehicle: DMSO, evaluated on day 60
  T/C: 144 % of control
dose: 125.0 mg/kg/injection, schedule: Q01DX001 (ip), vehicle: Klucel (hydroxypropylcellulose) (HPC)
  T/C: 148 % of control
dose: 125.0 mg/kg/injection, schedule: Q01DX001 (ip), vehicle: saline, evaluated on day 30
  T/C: 145, 148, 149 [5 of 6 alive], 159, 170, 174, 181, 196, 243 % of control
dose: 125.0 mg/kg/injection, schedule: Q01DX001 (ip), vehicle: saline, evaluated on day 35
  T/C: 141, 157, 167 [5 of 6 alive], 210 % of control
dose: 125.0 mg/kg/injection, schedule: Q01DX001 (ip), vehicle: saline, evaluated on day 40
  T/C: 113 % of control
dose: 125.0 mg/kg/injection, schedule: Q01DX001 (ip), vehicle: saline, evaluated on day 45
  T/C: 136, 147, 151 % of control
dose: 125.0 mg/kg/injection, schedule: Q01DX001 (ip), vehicle: saline, evaluated on day 60
  T/C: 138 % of control
dose: 125.0 mg/kg/injection, schedule: Q01DX001 (ip), vehicle: water, evaluated on day 30
  T/C: 119, 139 (2×), 140, 141, 143, 144, 145, 145 [5 of 6 alive], 147, 148, 149, 150, 152 (2×), 153 (2×), 154 (2×), 156 (2×), 157, 159, 160 [5 of 6 alive], 161 (2×), 166, 170 (2×), 172, 173 (2×), 175, 179, 181, 182, 187, 193, 197, 201, 208, 213, 306 % of control
dose: 125.0 mg/kg/injection, schedule: Q01DX001 (ip), vehicle: water, evaluated on day 35
  T/C: 152 and 185 % of control [4 of 6 alive]
dose: 125.0 mg/kg/injection, schedule: Q01DX001 (ip), vehicle: water, evaluated on day 40
  T/C: 166 and 196 % of control
dose: 125.0 mg/kg/injection, schedule: Q01DX001 (ip), vehicle: water, evaluated on day 45
  T/C: 159 and 166 % of control
dose: 125.0 mg/kg/injection, schedule: Q01DX001 (ip), vehicle: water, evaluated on day 60
  T/C: 159 % of control
dose: 150.0 mg/kg/injection, schedule: Q01DX001 (ip), vehicle: saline, evaluated on day 5
  T/C: 170 % of control
dose: 150.0 mg/kg/injection, schedule: Q01DX001 (ip), vehicle: saline, evaluated on day 6
  T/C: 163 % of control
dose: 150.0 mg/kg/injection, schedule: Q01DX001 (ip), vehicle: saline, evaluated on day 30
  T/C: 124, 146, 153, 162, 165, 166 % of control
dose: 200.0 mg/kg/injection, schedule: Q01DX001 (ip), vehicle: saline, evaluated on day 5
  T/C: 185, 203, 210, 239, 247, 299, 300, 394, 460 % of control
dose: 200.0 mg/kg/injection, schedule: Q01DX001 (ip), vehicle: saline, evaluated on day 7
  T/C: 199 % of control
dose: 200.0 mg/kg/injection, schedule: Q01DX001 (ip), vehicle: saline, evaluated on day 30
  T/C: 150, 151, 161, 168, 251, 255, 259, 329 % of control
dose: 200.0 mg/kg/injection, schedule: Q01DX001 (ip), vehicle: saline, evaluated on day 35
  T/C: 167 and 203 % of control
dose: 200.0 mg/kg/injection, schedule: Q01DX001 (ip), vehicle: saline, evaluated on day 40
  T/C: 200 and 258 % of control
dose: 200.0 mg/kg/injection, schedule: Q01DX001 (ip), vehicle: saline, evaluated on day 45
  T/C: 402 % of control
dose: 200.0 mg/kg/injection, schedule: Q01DX001 (ip), vehicle: saline, evaluated on day 60
  T/C: 209, 300 (2×), 394, 397, 460 % of control
dose: 200.0 mg/kg/injection, schedule: Q01DX001 (ip), vehicle: saline, evaluated on day 90
  T/C: 98, 152, 157, 162 [9 of 10 alive], 181, 185, 267 % of control
dose: 200.0 mg/kg/injection, schedule: Q01DX001 (ip), vehicle: water, evaluated on day 5
  T/C: 127 % of control
dose: 200.0 mg/kg/injection, schedule: Q01DX001 (ip), vehicle: water, evaluated on day 7
  T/C: 197 % of control
dose: 200.0 mg/kg/injection, schedule: Q01DX001 (ip), vehicle: water, evaluated on day 30
  T/C: 147, 170, 178, 184, 193, 195, 202, 208, 218, 262, 291, 344 % of control
dose: 200.0 mg/kg/injection, schedule: Q01DX001 (ip), vehicle: water, evaluated on day 35
  T/C: 247 % of control
dose: 200.0 mg/kg/injection, schedule: Q01DX001 (ip), vehicle: water, evaluated on day 45
  T/C: 127 % of control
dose: 200.0 mg/kg/injection, schedule: Q01DX001 (ip), vehicle: water, evaluated on day 60
  T/C: 197 % of control
dose: 200.0 mg/kg/injection, schedule: Q01DX009 (ip), vehicle: water
  survivor count: 6 of 6
dose: 250.0 mg/kg/injection, schedule: Q01DX001 (ip), vehicle: DMSO, evaluated on day 20
  T/C: 227 % of control
dose: 250.0 mg/kg/injection, schedule: Q01DX001 (ip), vehicle: DMSO, evaluated on day 25
  T/C: 252 % of control (2×)
dose: 250.0 mg/kg/injection, schedule: Q01DX001 (ip), vehicle: DMSO, evaluated on day 40
  T/C: 438 % of control
dose: 250.0 mg/kg/injection, schedule: Q01DX001 (ip), vehicle: DMSO, evaluated on day 60
  T/C: 397 % of control
dose: 250.0 mg/kg/injection, schedule: Q01DX001 (ip), vehicle: saline, evaluated on day 30
  T/C: 166, 179, 200, 216, 219, 222, 278 [5 of 6 alive], 346, 354 % of control
dose: 250.0 mg/kg/injection, schedule: Q01DX001 (ip), vehicle: saline, evaluated on day 35
  T/C: 225, 269, 274, 288 % of control
dose: 250.0 mg/kg/injection, schedule: Q01DX001 (ip), vehicle: saline, evaluated on day 40
  T/C: 143 % of control
dose: 250.0 mg/kg/injection, schedule: Q01DX001 (ip), vehicle: saline, evaluated on day 45
  T/C: 225, 236, 237 % of control
dose: 250.0 mg/kg/injection, schedule: Q01DX001 (ip), vehicle: saline, evaluated on day 60
  T/C: 289 % of control
dose: 250.0 mg/kg/injection, schedule: Q01DX001 (ip), vehicle: water, evaluated on day 30
  T/C: 129, 132 [5 of 6 alive], 136, 141, 146, 148, 158, 159, 173 (3×), 183, 200 [5 of 6 alive], 208, 210, 219, 227, 233, 236, 241, 246, 259, 273, 274, 280 (2×), 281, 282 (2×), 292, 297 (2×), 303, 308, 310 (2×), 320, 329, 337, 351, 353 % of control
